Test results reported in patent US6825317B2 (Sumitomo Pharmaceuticals Company, Limited, priority 1999, dated 2004).

Assay: general procedure: solution-phase peptide synthesis; BOP/HOBt with Et3N; HATU/DIEA for cyclisation
Settings: for cyclisation yield: cyclisation step; for final purity (method not given): HPLC

cyclo(-L-Asu(OBzl)-D-Cha-L-Ile-D-Pip-)
cyclisation yield: yield 18%

Cyclo(-L-Asu(OBzl)-Aib-L-Phe-D-Pro-)
cyclisation yield: 61%

H-L-Asu(OBzl)-Aib-L-Phe-D-Pro-OH.TFA
step yield (late stage modification step): 78%

cyclo(-L-Asu(NHOH)-D-Cha-L-Ile-D-Pip-)
final purity (method not given) (late stage modification step): purity 100%

cyclo(-L-Asu(NHOH)-D-Cha-L-Ile-L-Pip-)
final purity (method not given) (late stage modification step): purity 93%

Boc-L-Asu(OBzl)-Aib-L-Phe-D-Pro-OtBu
step yield (coupling step): 72%

Cyclo(-L-Asu-Aib-L-Phe-D-Pro-)
step yield (late stage modification step): 97%

cyclo(-L-Asu(NHOH)-Aib-L-Phe-D-Pro-)
step yield (late stage modification step): 74%

cyclo(-L-Asu(OH)-D-Cha-L-Ile-D-Pip-)
step yield (late stage modification step): yield 85%
